From PubChem BioAssay AID540276 (National Center for Advancing Translational Sciences (NCATS), 2011)
The campaign covered roughly 300,000 compounds. About 5,400 (1.8%) were called active. The shares of active, inactive and inconclusive entries below differ from those in the screen. Calls follow the shape of the full dose curve; tested in HEK293 cells. A potency beside an inconclusive call is a rough fit, not a confirmed value.

test: qHTS for inhibitors of binding or entry into cells for Marburg Virus; conditions: Marburg virus pseudotyped entry inhibition, cell reporter; activity change, negative = inhibition: at 37.8 µM (top of the series) unless noted
% is scaled to controls: 0 for no effect and ±100 for the full control effect; potency is read from the fitted curve at half-maximal effect.

SMILES	activity change, negative = inhibition	Potency
COC(=O)c1ccc(NS(=O)(=O)c2ccc(S(=O)(=O)N3CCOCC3)cc2)cc1	inactive: 3.68%	
CCCc1ccccc1OCCNC(C)=O	inactive: 21.6%	
Nc1ccc2cccc(O)c2c1		inconclusive: 5.62 µM [activator, single point]
CC(C)CC(=O)Nc1ccc2nn(-c3ccccc3)nc2c1		inconclusive: 1.58 µM [activator, partial curve]
O=[N+]([O-])c1cc(CN2CCN(c3cccc(C(F)(F)F)c3)CC2)c2cccnc2c1O		inconclusive: 10 µM [inhibitor, partial curve, poor fit]
C/C=C(/C)C(=O)O[C@H]1C(C)=C2[C@H]([C@@H]1OC(=O)CCCCCCC)[C@@](C)(OC(C)=O)C[C@H](OC(=O)CCC)[C@@]1(O)[C@H]2OC(=O)[C@@]1(C)O		active: 0.146 µM
Cc1ccc(C)n1-c1ccc(C(=O)NCc2ccncc2)cc1	inactive: -5.71%	
CC1CCN(CCCOc2ccc(Br)cc2Cl)CC1		inconclusive: 14.1 µM [inhibitor, partial curve, poor fit]
O=[N+]([O-])c1ccccc1S(=O)(=O)Nc1cccnc1		inconclusive: 0.708 µM [inhibitor, partial curve, poor fit]
O=S(=O)(c1cc(C(F)(F)F)ccc1Cl)N1CCN(c2ncnc3ccccc23)CC1	inactive: -27.5%	
Cc1c(NC(=O)c2ccc(Cl)cc2)cc(C(C)C)c(O)c1S(=O)(=O)c1ccccc1		inconclusive: 35.5 µM [inhibitor, single point]
O=C(Cc1ccc2c(c1)OCCO2)c1c(O)cc(O)cc1O	inactive: 11.4%	
COc1cc(CN(C)Cc2cc(=O)oc3cc(C)c(Cl)cc23)ccc1OC(F)F		inconclusive: 20 µM [inhibitor, single point]
CCN(CC)C(=S)SCC(=O)Nc1nc(=O)c2ccccc2s1	inactive: 12.3%	
CNC1=C(N(C(C)=O)c2ccc(Br)cc2)C(=O)c2ccccc2C1=O		active: 2.31 µM
CC(=O)Nc1ccccc1OCc1nnc(-c2cccs2)o1		inconclusive: 35.5 µM [activator, single point]
COc1ccc(Cl)cc1NC(=O)Cn1c(=O)n(CCCC(=O)NCCc2ccc(OC)c(OC)c2)c(=O)c2ccccc21		inconclusive: 1.12 µM [inhibitor, full curve, poor fit]
CS(=O)(=O)N(CC(=O)Nc1ccccc1C(=O)N1CCOCC1)c1cccc([N+](=O)[O-])c1	inactive: -1.46%	
NNC(=O)c1cc(C2CC2)nc2ccc(Br)cc12		inconclusive: 17.8 µM [inhibitor, partial curve, poor fit]

One compound at a time, from the list above.
COC(=O)c1ccc(NS(=O)(=O)c2ccc(S(=O)(=O)N3CCOCC3)cc2)cc1 in the list: activity change, negative = inhibition: inactive: 3.68%
CCCc1ccccc1OCCNC(C)=O in the list: activity change, negative = inhibition: inactive: 21.6%
